Results published in PubChem BioAssay AID2685 (National Center for Advancing Translational Sciences (NCATS), 2010).
Hit rate of the full screen: of about 320,000 compounds, about 2,100 (0.66%) were called active. The inconclusive results got no clear call from the source; some entries with a clear call stand among them for comparison. Calls follow the shape of the dose curve; as a rule, active = well fitted inhibition curve with a large enough effect in the signal ratio, with a control signal flat (not every such curve was filed as active); inconclusive = small, poorly fitted or top-dose-only effect, or effect the other way, or a change in a side signal; inactive = flat fitted curve, though single readings scatter; the % refers to the signal ratio. Potencies beside an inconclusive call are fits to weak or partial responses and may not hold up.

Assay: qHTS Assay for Lipid Storage Modulators in Drosophila S3 Cells
Settings: BODIPY lipid droplet fluorescence, 18-24 h, cells fed with added oleic acid; lipid storage change, negative = inhibition: at 46.1 µM (top of the series) unless noted
Method in brief: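 Laser-scanning cytometry quantifies lipid droplet accumulation (500–530 nm total intensity; droplet/cell object ratio) in oleic acid-fed (400 uM added) Drosophila S3 cells treated with a concentration series. 20 uM Triacsin C defined 100% inhibition.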
% is scaled to controls: 0 for no effect and ±100 for the full control effect; potency is read from the fitted curve at half-maximal effect.

Row | Compound | lipid storage change, negative = inhibition | Potency
1 | Cc1c(F)cccc1NS(=O)(=O)c1ccc2c(c1)n(C)c(=O)c(=O)n2C | inconclusive: -75.3% | 
2 | CCC(C)Cn1c(O)cc2nn(-c3nc4ccccc4s3)c(=O)c-2c1C (stereo not drawn) | inconclusive: -29.1% | 
3 | CN(C(=O)CSc1nc(-c2ccc(C(C)(C)C)cc2)c(C#N)c(=O)[nH]1)C1CCCCC1 | inconclusive: 5.6% | 
4 | Cc1ccc(OCc2nnc(SCc3cc(=O)[nH]c4ccccc34)o2)cc1 | inconclusive: -12.6% | 
5 | CC(C(=O)Nc1ccon1)N1C(=O)c2ccccc2S1(=O)=O (stereo not drawn) | inconclusive: 7.36% | 
6 | CC(=O)Oc1ccc(C(=O)c2ccccc2)c(OC(C)=O)c1 | inconclusive: -6.31% | 
7 | CC(NC(=O)C(Cc1ccccc1)n1cccc1)c1ccccc1 (stereo not drawn) |  | inconclusive: 0.651 µM [falling, full curve]
8 | CCC(CO)NCc1ccc(OC2CCCC2)cc1 (stereo not drawn) | inconclusive: -16.8% | 
9 | CC(C)NC(=O)NC(=O)COc1c(F)c(F)cc(F)c1F |  | inconclusive: 0.058 µM [falling, full curve, poor fit]
10 | O=C1CC[C@@H](O)CCN1CC[C@H](Sc1ccc(Br)cc1)c1ccccc1 |  | inconclusive: 0.146 µM [activator, full curve, poor fit]
11 | Cc1nnc(SCCn2c(N3CCN(Cc4ccccc4)CC3)nc3c2c(=O)[nH]c(=O)n3C)s1 | inconclusive: -1.31% | 
12 | CCN1CCCC1CNC(=S)Nc1ccc(C(C)=O)cc1 (stereo not drawn) | inconclusive: 3.85% | 
13 | O=C(CCn1cncn1)N1CCCC(N2CCN(c3ccc(F)cc3)CC2)C1 (stereo not drawn) | inconclusive: -30.5% | 
14 | O=C(Nc1nc2ccccc2s1)C1CCN(C(=O)c2ccco2)CC1 | inconclusive: -26.2% | 
15 | Fc1cccc(CSc2ccc3nnc(-c4cccnc4)n3n2)c1 |  | inconclusive: 29.1 µM [cytotoxic, single point]
16 | Cc1ccc(C(=O)N(CN2CCCC2=O)c2ccc(F)cc2)cc1C |  | inconclusive: 2.31 µM [activator, partial curve]
17 | CN(c1ccc(OCC(=O)NCc2cccnc2)cc1)S(=O)(=O)c1ccc(Cl)cc1 |  | inconclusive: 20.6 µM [activator, partial curve]
18 | CCC(=NCc1ccc(Cl)c(Cl)c1)c1nc(-c2ccco2)oc1O | inconclusive: 0.338% | 
19 | O=C(NCCc1ccccc1F)C(=O)Nc1nccs1 | inconclusive: -55.9% | 
20 | FC(F)(F)c1ccc(/C=N/NC(=S)NC2CCCCC2)cc1 | inconclusive: 12.9% | 

In another format: results already given.
Row,Compound,"lipid storage change, negative = inhibition",Potency
3,CN(C(=O)CSc1nc(-c2ccc(C(C)(C)C)cc2)c(C#N)c(=O)[nH]1)C1CCCCC1,inconclusive: 5.6%,
4,Cc1ccc(OCc2nnc(SCc3cc(=O)[nH]c4ccccc34)o2)cc1,inconclusive: -12.6%,
5,CC(C(=O)Nc1ccon1)N1C(=O)c2ccccc2S1(=O)=O (stereo not drawn),inconclusive: 7.36%,
6,CC(=O)Oc1ccc(C(=O)c2ccccc2)c(OC(C)=O)c1,inconclusive: -6.31%,
7,CC(NC(=O)C(Cc1ccccc1)n1cccc1)c1ccccc1 (stereo not drawn),,"inconclusive: 0.651 µM [falling, full curve]"

(cont.)

Row | Compound | lipid storage change, negative = inhibition | Potency
21 | COc1ccc2c(c1)[nH]c1c(=O)n(Cc3ccco3)cnc12 | inconclusive: 43% | 
22 | CCN1CCN(c2cc(-c3ccccc3)nc3cc(-c4cccc(F)c4)nn23)CC1 |  | inconclusive: 29.1 µM [cytotoxic, single point]
23 | Cc1cc(-c2ccccc2)nc(N/N=C/c2ccc(O)cc2)n1 |  | inconclusive: 29.1 µM [falling, single point]
24 | COc1ccc(CCC(C)NCc2ccc(Cl)c(Cl)c2)cc1 (stereo not drawn) |  | inconclusive: 0.146 µM [activator, full curve, poor fit]
25 | COc1cccc(NC(=O)Cc2nnc(SCC(=O)NC3CCCC3)n2C)c1 | inconclusive: 48.2% | 
26 | CCOc1ccccc1NC(=S)N1CCN(c2ccc(O)cc2)CC1 | inconclusive: 31% | 
27 | COc1cccc2sc(=NC(=O)CS(=O)(=O)c3ccc(F)cc3)n(C)c12 |  | inconclusive: 1.03 µM [activator, full curve, poor fit]
28 | Cn1c(=O)n(CCc2ccccc2)c(=O)c2c1nc1n2CCCN1Cc1ccccc1 | inconclusive: 0.846% | 
29 | CC1CC(C)CN(S(=O)(=O)c2ccc(NC(=O)CCN3C(=O)C4CC=CCC4C3=O)cc2)C1 (stereo not drawn) | inconclusive: -57.6% | 
30 | COc1ccc2oc(C(=O)NCc3ccccc3CN3CCCC3)c(C)c2c1 | inconclusive: -19.9% | 
31 | O=C(Nc1ccc2c(c1)CCC2)c1cccc(S(=O)(=O)Nc2ccccc2Cl)c1 |  | inconclusive: 18.4 µM [activator, partial curve]
32 | COc1cccc(C(=O)OCC(=O)N2CCc3ccccc32)c1OC | inconclusive | 
33 | CC(=O)Nc1ccc(NC(=O)c2ccccc2N(Cc2ccccc2)S(C)(=O)=O)cc1 |  | inconclusive: 32.6 µM [falling, single point]
34 | CCOC(=O)c1sc(NC(=O)c2cccs2)nc1C | inactive: -6.52% | 
35 | COc1ccc(-n2cnc3cc(C(=O)NCC4CCCO4)ccc32)cc1 (stereo not drawn) | inconclusive: 24.9% | 
36 | COc1ccc(CCNc2ccc(S(=O)(=O)N3CCCC3)cc2[N+](=O)[O-])cc1 | inconclusive: -12.7% | 
37 | COc1ccc(NC(=O)CN(C)C(=O)CCc2ccccc2)cc1 |  | inconclusive: 6.51 µM [falling, single point]
38 | CCOC(=O)N1CCN(C2=NC3(CCCCC3)C(C#N)C(=O)N2)CC1 (stereo not drawn) |  | inconclusive: 0.0046 µM [falling, full curve, poor fit]
39 | COc1ccc([C@H]2CC(=O)C=C(c3ccccc3Oc3ccccc3)C2)cc1 | inconclusive: -36.7% | 
40 | O=CNC(Cc1ccccc1)C(=O)O (stereo not drawn) | inconclusive: -48.5% | 

Row | Compound | lipid storage change, negative = inhibition | Potency
41 | COc1ccccc1NC(=S)N1CCN(C(=O)c2ccco2)CC1 |  | inconclusive: 29.1 µM [activator, partial curve]
42 | COc1cc2c(cc1OC)C(c1cccc([N+](=O)[O-])c1)=NCC2 |  | inconclusive: 18.4 µM [falling, single point]
43 | CCn1c(SCC(=O)NNC(=O)c2ccc(C)cc2)nnc1C(C)C | inconclusive: 71.1% | 
44 | CN1C(=O)C2(c3ccccc31)N(C)CC(c1ccccn1)C21SC(=S)N(Cc2ccco2)C1=O (stereo not drawn) | inconclusive: 23.5% | 
45 | COc1ccccc1N1CCN(CC(O)COCc2cccs2)CC1 (stereo not drawn) | inconclusive: -31.6% | 
46 | COc1ccc(-c2cc(=O)[nH]c3ccccc23)cc1 |  | inconclusive: 29.1 µM [activator, single point]
47 | O=C(N=C1SC2CS(=O)(=O)CC2N1CCc1ccccc1)C1CC1 (stereo not drawn) |  | inconclusive: 29.1 µM [activator, single point]
48 | O=c1[nH]nc(CNc2ccc(Cl)cc2Cl)c2ccccc12 | inconclusive: -7.36% | 
49 | Cc1ccc(S(=O)(=O)Nc2ccc(N3CCOCC3)cc2)cc1 | inconclusive: -3.12% | 
50 | CCC1CCCCN1CCCNC(=O)c1ccc(/C=C2/Sc3ccccc3NC2=O)cc1 (stereo not drawn) |  | active: 5.17 µM
51 | CCOC(=O)n1c(=O)oc2cc(S(=O)(=O)N3CCCCC3)ccc21 | inconclusive: -20.2% | 
52 | CCOCC(=O)Nc1c(C(=O)Nc2ccc3c(c2)OCO3)oc2ccccc12 |  | inconclusive: 4.11 µM [falling, single point]
53 | COc1cccc(C(C(=O)NC2CCCC2)N(C(=O)c2ccco2)c2cccc(C(C)=O)c2)c1OC (stereo not drawn) |  | inconclusive: 2.31 µM [activator, partial curve, poor fit]
54 | Cc1cccc(NC(=O)Nc2ccc(Br)cc2)n1 | inconclusive: -12% | 
55 | NC(=O)C1CCCN(C(=O)CN2C(=O)NC(c3ccccc3)(c3ccccc3)C2=O)C1 (stereo not drawn) | inconclusive: 2.7% | 
56 | CCOc1ccc(NC(=O)Cn2nc(C(N)=O)c3ccccc3c2=O)cc1S(=O)(=O)N1CCCC1 | inconclusive: 6.21% | 
57 | NC(=O)[C@@H]1CCCN1Cc1nc(-c2cccs2)no1 | inconclusive: 16.5% | 
58 | C=CCc1cccc(C=Nc2cc(Br)ccc2O)c1O | inconclusive: 0.185% | 
